Measurements as given in PubChem BioAssay AID256 (DTP/NCI, 2004).
The list shows only some results of the screen, not a fair sample: it gathers tests that were run many times, whatever their T/C, doses with no T/C, and many T/C values between a quarter and a half above the control. Further doses and runs are listed elsewhere. T/C is the treated group as % of the vehicle group. Some entries give survivors of the animals treated and no T/C: the source holds a T/C of zero for them, seemingly a mark for toxic or unscored doses. Some survivor counts are full or nearly so, which does not show that the dose was tolerated: survival well below the control is almost never listed, so the zero probably covers shortened survival too. Counts of survivors are from the toxicity check (mostly the fifth day) where no day follows; animals may have died later. Schedules are NCI's codes, taken here to give the interval after Q, in days (D) or hours (H), and the number of doses after X. Some structures stand for samples that the source files as different forms (salt, stereo form or complex); doses refer to the form tested. For survival time, the PubChem record calls one and a half times the control and up active, and a quarter to a half above the control has no call in these data; cut-offs in other NCI protocols can differ. Some doses were run more than once; the values are given in rising order.

System: CD2F1 mice, L1210 leukemia ip, survival T/C
Test: NCI In Vivo Anticancer Drug Screen. Data for tumor model L1210 Leukemia (intraperitoneal) in CD2F1 (CDF1) mice
Settings: higher T/C = longer survival
Outline: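 Mice carrying a transplanted tumor received test compound or vehicle alone. The value is the measurement in the treated group divided by that in the vehicle-treated control group.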

[1] = T/C endpoint: mean survival time, dose: 400.0 mg/kg/injection, schedule: Q04DX003 (ip), vehicle: saline with Tween-80
[2] = T/C endpoint: mean survival time, dose: 200.0 mg/kg/injection, schedule: Q01DX009 (ip), vehicle: saline with Tween-80
[3] = T/C endpoint: mean survival time, dose: 400.0 mg/kg/injection, schedule: Q01DX009 (ip), vehicle: saline with Tween-80

Structure (SMILES): CC1(O)C=CC(=O)C=C1
- survivor count (T/C endpoint: median survival time, dose: 100.0 mg/kg/injection, schedule: Q01DX009 (ip), vehicle: water): 0 of 6

Structure (SMILES): COc1cc2c(cc1OC)C1CC(O)C3CCCCC3N1CC2 (stereo not drawn)
- survivor count [1]: 0 of 6

Structure (SMILES): Cc1cccc(OCC(=O)O)c1
- survivor count [1]: 0 of 6

Structure (SMILES): CCCC(N)C(=O)c1ccccc1 (stereo not drawn)
- survivor count (T/C endpoint: mean survival time, dose: 150.0 mg/kg/injection, schedule: Q04DX003 (ip), vehicle: saline): 2 of 6
- survivor count (T/C endpoint: mean survival time, dose: 225.0 mg/kg/injection, schedule: Q04DX003 (ip), vehicle: saline): 0 of 6
- survivor count (T/C endpoint: mean survival time, dose: 335.0 mg/kg/injection, schedule: Q04DX003 (ip), vehicle: saline): 0 of 6

Structure (SMILES): O=C1c2ccccc2C(=O)c2cc(N3C(=O)C=CC3=O)ccc21
- survivor count (T/C endpoint: mean survival time, dose: 400.0 mg/kg/injection, schedule: Q01DX001 (ip), vehicle: saline): 0 of 6

Structure (SMILES): C=C1C(=O)OC2CC(C)C3C(O)C(O)C(O)C3(C)CC12 (stereo not drawn)
- survivor count [1]: 3 of 6

Structure (SMILES): CC(C)(CO)COC(=O)NC1=C(N2CC2)C(=O)C(NC(=O)OCC(C)(C)CO)=C(N2CC2)C1=O
- T/C (T/C endpoint: mean survival time, dose: 3.0 mg/kg/injection, schedule: Q01DX009 (ip), vehicle: water): 125 and 136 % of control
- T/C (T/C endpoint: mean survival time, dose: 6.0 mg/kg/injection, schedule: Q01DX009 (ip), vehicle: water): 136 and 140 % of control

Structure (SMILES): CN(C)N=Nc1c(F)c(F)c(F)c(F)c1F
- survivor count [2]: 2 of 6
- survivor count [3]: 1 of 6

Structure (SMILES): CC([NH-])C[NH-].[Cl][Pt+2][Cl] (stereo not drawn)
- survivor count (T/C endpoint: mean survival time, dose: 10.0 mg/kg/injection, schedule: Q01DX009 (ip), vehicle: saline with Tween-80): 6 of 6
- T/C (T/C endpoint: mean survival time, dose: 10.0 mg/kg/injection, schedule: Q04DX003 (ip), vehicle: saline with Tween-80): 140 % of control

Structure (SMILES): Cc1cc(NCCN(C(C)C)C(C)C)nc(Nc2nc3cc(Cl)c(Cl)cc3[nH]2)n1
- survivor count (T/C endpoint: mean survival time, dose: 50.0 mg/kg/injection, schedule: Q01DX009 (ip), vehicle: saline with Tween-80): 1 of 6
- survivor count (T/C endpoint: mean survival time, dose: 100.0 mg/kg/injection, schedule: Q01DX009 (ip), vehicle: saline with Tween-80): 0 of 6
- survivor count [2]: 0 of 6
- survivor count (T/C endpoint: mean survival time, dose: 200.0 mg/kg/injection, schedule: Q04DX003 (ip), vehicle: saline with Tween-80): 6 of 6
- survivor count [1]: 5 of 6

Structure (SMILES): O=C(O[Si](Cc1ccccc1)(Cc1ccccc1)Cc1ccccc1)N(CCCl)CCCl
- T/C (T/C endpoint: mean survival time, dose: 12.5 mg/kg/injection, schedule: Q01DX009 (ip), vehicle: distilled water + Tween-80): 127 % of control
- T/C (T/C endpoint: mean survival time, dose: 50.0 mg/kg/injection, schedule: Q01DX009 (ip), vehicle: distilled water + Tween-80): 127 % of control
- T/C (T/C endpoint: mean survival time, dose: 100.0 mg/kg/injection, schedule: Q01DX009 (ip), vehicle: distilled water + Tween-80): 129 % of control

Structure (SMILES): COCC/C(COC)=N/N
- survivor count [2]: 3 of 6
- survivor count [3]: 0 of 6

Structure (SMILES): CNC1CCCCCC1
- survivor count (T/C endpoint: mean survival time, dose: 300.0 mg/kg/injection, schedule: Q01DX001 (ip), vehicle: saline): 0 of 6

Structure (SMILES): CCOC(=O)C(=O)C(C#N)c1ccccc1 (stereo not drawn)
- survivor count (T/C endpoint: mean survival time, dose: 200.0 mg/kg/injection, schedule: Q01DX001 (ip), vehicle: Klucel (hydroxypropylcellulose) (HPC)): 1 of 3
- survivor count (T/C endpoint: mean survival time, dose: 400.0 mg/kg/injection, schedule: Q01DX001 (ip), vehicle: Klucel (hydroxypropylcellulose) (HPC)): 0 of 3

Structure (SMILES): Cn1c(=O)c2c(nc(-c3ccccc3)n2O)n(C)c1=O
- survivor count (T/C endpoint: mean survival time, dose: 200.0 mg/kg/injection, schedule: Q01DX005 (ip), vehicle: other): 2 of 6

Structure (SMILES): Cc1ccc(NC(=O)c2ccccc2)c(C)c1
- survivor count [3]: 3 of 6

Structure (SMILES): CCN(CC)CCNc1ccc(CO)c2sc3ccccc3c(=O)c12
- T/C (T/C endpoint: mean survival time, dose: 16.0 mg/kg/injection, schedule: Q01DX009 (ip), vehicle: saline): 129 % of control
- T/C (T/C endpoint: mean survival time, dose: 16.0 mg/kg/injection, schedule: Q01DX009 (sc), vehicle: saline): 125 % of control
- T/C (T/C endpoint: mean survival time, dose: 32.0 mg/kg/injection, schedule: Q01DX009 (ip), vehicle: saline): 146 % of control
- T/C (T/C endpoint: mean survival time, dose: 32.0 mg/kg/injection, schedule: Q01DX009 (sc), vehicle: saline): 140 % of control
- T/C (T/C endpoint: mean survival time, dose: 32.0 mg/kg/injection, schedule: Q03HX008 (ip), vehicle: saline): 134 % of control
- T/C (T/C endpoint: mean survival time, dose: 64.0 mg/kg/injection, schedule: Q04DX003 (ip), vehicle: saline): 125 % of control
- T/C (T/C endpoint: mean survival time, dose: 128.0 mg/kg/injection, schedule: Q01DX009 (oral), vehicle: saline): 148 % of control
- T/C (T/C endpoint: mean survival time, dose: 128.0 mg/kg/injection, schedule: Q04DX003 (ip), vehicle: saline): 138 % of control
- survivor count (T/C endpoint: mean survival time, dose: 180.0 mg/kg/injection, schedule: Q01DX009 (ip), vehicle: acetone): 4 of 6
- survivor count (T/C endpoint: mean survival time, dose: 256.0 mg/kg/injection, schedule: Q01DX009 (ip), vehicle: saline): 3 of 10
- survivor count (T/C endpoint: mean survival time, dose: 256.0 mg/kg/injection, schedule: Q01DX009 (sc), vehicle: saline): 0 of 10
- survivor count (T/C endpoint: mean survival time, dose: 256.0 mg/kg/injection, schedule: Q04DX003 (ip), vehicle: saline): 6 of 10
- T/C (T/C endpoint: mean survival time, dose: 256.0 mg/kg/injection, schedule: Q08DX002 (ip), vehicle: saline): 134 % of control
- T/C (T/C endpoint: mean survival time, dose: 264.0 mg/kg/injection, schedule: Q01DX001 (ip), vehicle: acetone): 137 % of control
- survivor count (T/C endpoint: mean survival time, dose: 264.0 mg/kg/injection, schedule: Q01DX009 (ip), vehicle: acetone): 1 of 6
- survivor count (T/C endpoint: mean survival time, dose: 400.0 mg/kg/injection, schedule: Q01DX009 (ip), vehicle: acetone): 0 of 6
- survivor count (T/C endpoint: mean survival time, dose: 512.0 mg/kg/injection, schedule: Q01DX001 (ip), vehicle: saline): 0 of 10
- T/C (T/C endpoint: mean survival time, dose: 512.0 mg/kg/injection, schedule: Q01DX001 (sc), vehicle: saline): 135 % of control
- survivor count (T/C endpoint: mean survival time, dose: 512.0 mg/kg/injection, schedule: Q01DX009 (oral), vehicle: saline): 3 of 10
- survivor count (T/C endpoint: mean survival time, dose: 512.0 mg/kg/injection, schedule: Q04DX003 (ip), vehicle: saline): 0 of 10
- survivor count (T/C endpoint: mean survival time, dose: 512.0 mg/kg/injection, schedule: Q08DX002 (ip), vehicle: saline): 0 of 10
- T/C (T/C endpoint: mean survival time, dose: 1024.0 mg/kg/injection, schedule: Q01DX001 (oral), vehicle: saline): 126 % of control
- survivor count (T/C endpoint: mean survival time, dose: 1024.0 mg/kg/injection, schedule: Q01DX009 (oral), vehicle: saline): 0 of 10
- survivor count (T/C endpoint: mean survival time, dose: 2048.0 mg/kg/injection, schedule: Q01DX001 (oral), vehicle: saline): 6 of 10
- T/C (T/C endpoint: median survival time, dose: 20.0 mg/kg/injection, schedule: Q01DX009 (ip), vehicle: water): 133 % of control
- T/C (T/C endpoint: median survival time, dose: 80.0 mg/kg/injection, schedule: Q01DX009 (ip), vehicle: water): 141 % of control

Structure (SMILES): CNNCc1ccc(/C=N/NC(N)=S)cc1
- survivor count (T/C endpoint: mean survival time, dose: 25.0 mg/kg/injection, schedule: Q01DX009 (ip), vehicle: water): 6 of 6
- survivor count (T/C endpoint: mean survival time, dose: 200.0 mg/kg/injection, schedule: Q01DX009 (ip), vehicle: water): 6 of 6
- survivor count (T/C endpoint: mean survival time, dose: 400.0 mg/kg/injection, schedule: Q01DX009 (ip), vehicle: water): 3 of 6

Structure (SMILES): COC1=C(C)C(=O)c2c(c(COC(N)=O)c3n2CCC3OC(N)=O)C1=O (stereo not drawn)
- survivor count (T/C endpoint: mean survival time, dose: 20.0 mg/kg/injection, schedule: Q01DX001 (ip), vehicle: distilled water + Tween-80): 0 of 6
- survivor count (T/C endpoint: mean survival time, dose: 24.0 mg/kg/injection, schedule: Q01DX001 (ip), vehicle: distilled water + Tween-80): 3 of 6

Structure (SMILES): CCCC(CN(C)C)C(=O)c1ccccc1 (stereo not drawn)
- survivor count (T/C endpoint: mean survival time, dose: 200.0 mg/kg/injection, schedule: Q04DX002 (ip), vehicle: saline with Tween-80): 1 of 3
- survivor count (T/C endpoint: mean survival time, dose: 400.0 mg/kg/injection, schedule: Q04DX002 (ip), vehicle: saline with Tween-80): 0 of 3

Structure (SMILES): CN(C)/N=C/c1cccc(CC(O)(C(F)(F)F)C(F)(F)F)n1
- survivor count (T/C endpoint: mean survival time, dose: 400.0 mg/kg/injection, schedule: Q01DX001 (ip), vehicle: saline with Tween-80): 0 of 6
